For two molecules, binding results are on record in paper PMC12317064.

Chains of the proteins cited; added tags and fusions are not shown.
UniProt Q9VUX2: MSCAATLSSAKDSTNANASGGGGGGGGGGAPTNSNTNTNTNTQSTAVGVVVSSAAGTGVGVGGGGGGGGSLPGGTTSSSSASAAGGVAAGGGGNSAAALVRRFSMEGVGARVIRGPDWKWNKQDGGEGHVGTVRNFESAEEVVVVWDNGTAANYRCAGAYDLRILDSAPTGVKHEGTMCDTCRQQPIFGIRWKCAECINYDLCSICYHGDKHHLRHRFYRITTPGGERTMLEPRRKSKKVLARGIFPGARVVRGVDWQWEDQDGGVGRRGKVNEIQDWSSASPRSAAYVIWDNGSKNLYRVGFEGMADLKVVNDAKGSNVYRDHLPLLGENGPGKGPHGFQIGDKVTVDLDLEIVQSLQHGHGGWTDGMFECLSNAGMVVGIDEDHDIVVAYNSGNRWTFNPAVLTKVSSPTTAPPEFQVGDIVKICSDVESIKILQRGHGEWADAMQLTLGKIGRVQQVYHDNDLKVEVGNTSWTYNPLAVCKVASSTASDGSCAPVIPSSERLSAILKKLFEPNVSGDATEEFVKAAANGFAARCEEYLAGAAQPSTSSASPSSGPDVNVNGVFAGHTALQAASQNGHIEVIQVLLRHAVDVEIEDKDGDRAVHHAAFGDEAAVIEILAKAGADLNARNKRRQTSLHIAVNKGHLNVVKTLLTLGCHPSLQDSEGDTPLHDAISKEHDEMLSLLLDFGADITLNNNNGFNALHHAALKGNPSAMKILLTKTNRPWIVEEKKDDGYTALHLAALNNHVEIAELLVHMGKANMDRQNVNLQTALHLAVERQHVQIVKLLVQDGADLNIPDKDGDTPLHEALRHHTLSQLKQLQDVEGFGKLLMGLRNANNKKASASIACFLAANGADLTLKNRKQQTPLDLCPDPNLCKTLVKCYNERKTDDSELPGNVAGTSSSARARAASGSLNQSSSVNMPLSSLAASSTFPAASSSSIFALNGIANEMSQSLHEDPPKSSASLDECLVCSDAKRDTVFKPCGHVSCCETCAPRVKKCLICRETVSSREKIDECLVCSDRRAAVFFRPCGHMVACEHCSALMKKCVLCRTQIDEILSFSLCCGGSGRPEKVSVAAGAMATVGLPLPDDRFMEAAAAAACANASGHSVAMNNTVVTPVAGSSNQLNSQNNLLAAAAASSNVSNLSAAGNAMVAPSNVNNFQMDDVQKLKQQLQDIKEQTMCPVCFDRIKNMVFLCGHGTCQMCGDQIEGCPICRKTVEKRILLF

No constants are given. Whether binding was seen depends on the method and setting. In cells and extracts the contact can be indirect. Some entries that bind do so weakly or less than the wild type. Tags and fused reporters may be left off the sequences shown.

The target in test [1] is T1, Flag-tagged AP-2α (Drosophila) (UniProt P91926).
T1 sequence: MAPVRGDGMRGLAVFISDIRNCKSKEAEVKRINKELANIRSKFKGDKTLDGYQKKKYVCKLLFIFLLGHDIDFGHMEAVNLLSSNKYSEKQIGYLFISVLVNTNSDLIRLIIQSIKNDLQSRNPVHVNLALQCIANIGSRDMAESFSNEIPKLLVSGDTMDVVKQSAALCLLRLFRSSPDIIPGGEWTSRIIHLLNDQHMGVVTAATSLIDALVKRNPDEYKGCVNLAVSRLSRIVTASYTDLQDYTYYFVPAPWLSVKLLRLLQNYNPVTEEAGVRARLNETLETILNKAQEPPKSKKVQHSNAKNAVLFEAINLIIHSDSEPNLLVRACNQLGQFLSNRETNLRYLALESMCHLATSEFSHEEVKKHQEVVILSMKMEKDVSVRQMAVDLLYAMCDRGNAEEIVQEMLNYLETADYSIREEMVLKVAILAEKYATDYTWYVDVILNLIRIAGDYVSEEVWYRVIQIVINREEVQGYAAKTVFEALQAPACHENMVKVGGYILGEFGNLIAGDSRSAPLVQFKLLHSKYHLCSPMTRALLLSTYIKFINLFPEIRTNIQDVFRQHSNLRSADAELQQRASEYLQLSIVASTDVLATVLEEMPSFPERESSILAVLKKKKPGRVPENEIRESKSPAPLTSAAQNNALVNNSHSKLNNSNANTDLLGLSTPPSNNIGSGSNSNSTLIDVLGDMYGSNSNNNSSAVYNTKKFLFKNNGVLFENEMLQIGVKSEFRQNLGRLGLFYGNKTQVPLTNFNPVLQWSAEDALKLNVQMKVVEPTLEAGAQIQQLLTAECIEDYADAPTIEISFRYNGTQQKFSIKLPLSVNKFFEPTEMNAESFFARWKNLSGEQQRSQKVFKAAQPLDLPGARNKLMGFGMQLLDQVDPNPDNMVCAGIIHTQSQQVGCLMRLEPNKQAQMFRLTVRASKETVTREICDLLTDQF
As to the kind of experiment: co-IP; S2 cells co-transfected with Flag- and HA-tagged proteins, harvested after 72 h; NP-40 buffer (50 mM Tris pH 7.4, 150 mM NaCl, 1% NP-40); primary antibody overnight at 4 °C, Protein A/G magnetic beads; western blotting. (In general: A western blot detects proteins with antibodies after separation by electrophoresis.)

The target in test [2] is Flag-tagged Mib1 (Drosophila) (UniProt Q9VUX2). Described as above.

With “HA-tagged Mib1 (from UniProt Q9VUX2 1-1226) (enzyme)”, the binding result in test [1] is reported as “binds”.

B1: HA-tagged AP-2α (protein, UniProt P91926 1-940)
chain: T1 sequence
Regarding B1, the binding result in test [2] was “binds”.
